# Measured values: article PMC5297731
# Sequences of proteins named here, by UniProt entry; tags and fusion partners are left off.
# UniProt P62820: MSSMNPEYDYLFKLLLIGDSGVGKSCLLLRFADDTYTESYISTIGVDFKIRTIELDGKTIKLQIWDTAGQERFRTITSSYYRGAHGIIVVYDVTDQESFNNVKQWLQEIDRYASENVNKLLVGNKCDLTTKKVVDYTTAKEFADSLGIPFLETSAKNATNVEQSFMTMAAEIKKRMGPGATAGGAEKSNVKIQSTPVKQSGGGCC
# UniProt P61026: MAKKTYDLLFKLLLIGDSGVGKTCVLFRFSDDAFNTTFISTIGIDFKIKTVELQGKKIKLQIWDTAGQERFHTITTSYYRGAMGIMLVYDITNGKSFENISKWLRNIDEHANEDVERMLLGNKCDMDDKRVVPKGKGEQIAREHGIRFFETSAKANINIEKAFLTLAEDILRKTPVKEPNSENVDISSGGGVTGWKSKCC
# UniProt P62834: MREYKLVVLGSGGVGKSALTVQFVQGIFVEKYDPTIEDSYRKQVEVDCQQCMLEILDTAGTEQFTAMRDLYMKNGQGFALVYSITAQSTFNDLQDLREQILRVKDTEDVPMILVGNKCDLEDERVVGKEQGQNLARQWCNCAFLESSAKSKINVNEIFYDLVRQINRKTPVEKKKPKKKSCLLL
# UniProt P61224: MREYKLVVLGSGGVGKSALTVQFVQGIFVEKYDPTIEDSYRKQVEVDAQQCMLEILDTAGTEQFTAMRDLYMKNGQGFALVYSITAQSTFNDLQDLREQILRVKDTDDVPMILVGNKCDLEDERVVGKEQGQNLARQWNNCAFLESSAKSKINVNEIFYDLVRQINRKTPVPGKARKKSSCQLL
# Results are given in words; binding and its absence hold for the method and conditions named. Binding seen in cells or lysates may run through a third protein. A yes stands for co-enrichment or nearness to the bait. Other partners may have been found. Tags and fused reporters may be left off the sequences shown.
# Molecular target: T1, Male Germ Cells Rab GTPase-Activating Protein (MGCRABGAP), FLAG-tagged (human) (UniProt Q8IYX1)
# T1 sequence: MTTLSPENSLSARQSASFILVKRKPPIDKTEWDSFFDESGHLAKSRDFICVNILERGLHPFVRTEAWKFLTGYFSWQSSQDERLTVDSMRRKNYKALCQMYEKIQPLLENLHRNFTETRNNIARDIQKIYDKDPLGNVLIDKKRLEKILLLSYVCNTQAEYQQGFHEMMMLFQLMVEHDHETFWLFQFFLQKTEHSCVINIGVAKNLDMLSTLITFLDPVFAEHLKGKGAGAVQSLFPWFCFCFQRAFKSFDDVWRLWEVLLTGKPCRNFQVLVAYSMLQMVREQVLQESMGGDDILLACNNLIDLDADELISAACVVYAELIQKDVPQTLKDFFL
# Assay: affinity purification with mass spectrometry; lysates of cells transfected with pFLAG-MGCRABGAP immunoprecipitated with anti-FLAG antibody or mouse IgG control; immunoprecipitates digested with Lys-C and trypsin, nano LC-MS/MS (LTQ Orbitrap XL)
row,Substance,binding
1,RAB1A (from UniProt P62820 1-205),binds
2,RAB10 (from UniProt P61026 1-200),binds
3,RAP1A (from UniProt P62834 1-184),binds
4,RAP1B (from UniProt P61224 1-184),binds
